Data reported in paper PMC5751205, “Rapid Non-Enzymatic Glycation of the Insulin Receptor under Hyperglycemic Conditions Inhibits Insulin Binding In Vitro: Implications for Insulin Resistance” (International Journal of Molecular Sciences, 2017).

Protein sequences, listed by entry. Tags and fused reporters are not part of them. Lines headed by an entry give the natural chain unless they say otherwise; changes in a name come on top.
UniProt P06213: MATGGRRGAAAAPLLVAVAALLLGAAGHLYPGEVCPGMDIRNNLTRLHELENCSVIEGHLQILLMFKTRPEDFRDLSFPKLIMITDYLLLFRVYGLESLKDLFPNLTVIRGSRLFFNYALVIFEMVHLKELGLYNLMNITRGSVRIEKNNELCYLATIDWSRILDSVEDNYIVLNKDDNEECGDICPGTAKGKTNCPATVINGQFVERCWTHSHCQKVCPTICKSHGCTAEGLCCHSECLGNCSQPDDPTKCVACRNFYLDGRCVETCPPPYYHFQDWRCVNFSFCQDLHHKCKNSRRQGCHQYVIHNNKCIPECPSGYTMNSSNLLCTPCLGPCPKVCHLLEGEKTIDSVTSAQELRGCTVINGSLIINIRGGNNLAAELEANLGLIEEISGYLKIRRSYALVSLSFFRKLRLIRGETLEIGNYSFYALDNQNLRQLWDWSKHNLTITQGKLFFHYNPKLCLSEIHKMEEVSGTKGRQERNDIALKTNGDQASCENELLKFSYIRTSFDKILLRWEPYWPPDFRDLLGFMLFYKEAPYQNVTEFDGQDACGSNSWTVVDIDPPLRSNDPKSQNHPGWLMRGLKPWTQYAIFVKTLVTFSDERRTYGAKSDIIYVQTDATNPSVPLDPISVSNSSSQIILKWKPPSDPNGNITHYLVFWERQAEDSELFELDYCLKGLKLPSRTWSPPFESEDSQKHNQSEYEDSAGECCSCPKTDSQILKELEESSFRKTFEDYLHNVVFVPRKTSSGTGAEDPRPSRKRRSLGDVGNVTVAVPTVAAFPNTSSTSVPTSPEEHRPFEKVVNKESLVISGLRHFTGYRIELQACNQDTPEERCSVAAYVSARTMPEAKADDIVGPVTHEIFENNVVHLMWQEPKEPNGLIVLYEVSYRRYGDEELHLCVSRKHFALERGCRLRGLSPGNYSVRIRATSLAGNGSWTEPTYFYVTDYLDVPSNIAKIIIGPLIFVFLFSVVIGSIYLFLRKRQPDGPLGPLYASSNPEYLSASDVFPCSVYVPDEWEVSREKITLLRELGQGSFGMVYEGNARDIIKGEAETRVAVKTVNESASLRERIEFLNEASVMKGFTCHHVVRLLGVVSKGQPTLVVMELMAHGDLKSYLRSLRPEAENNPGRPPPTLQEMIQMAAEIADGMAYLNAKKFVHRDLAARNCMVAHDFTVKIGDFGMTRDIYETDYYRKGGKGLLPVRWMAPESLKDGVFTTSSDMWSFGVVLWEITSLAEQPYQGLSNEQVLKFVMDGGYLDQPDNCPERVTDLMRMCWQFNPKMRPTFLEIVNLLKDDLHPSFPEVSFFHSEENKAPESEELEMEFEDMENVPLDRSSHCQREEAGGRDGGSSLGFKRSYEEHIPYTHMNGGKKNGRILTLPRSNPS

Assay: Non-enzymatic glycation of insulin and IR peptides followed by MALDI-TOF mass spectrometry
Type: physicochemical
Details: for % Glycation 6 Day 20 mM, primary site / % Glycation 6 Day 20 mM, secondary site: 20 mM glucose in DMEM, six days, 36–38 °C, peptide 0.1 mg/mL, signal height relative to unglycated peptide peak, average of three experiments

Substance	% Glycation 6 Day 20 mM, primary site	% Glycation 6 Day 20 mM, secondary site	Degree of glycation at the highest glucose concentrations (highest glucose concentrations)
ENCSVIEGHLQ [51-61, synthetic insulin receptor peptide, residues 51-61 of human IR, insulin-like]	6%	0%	
ESEDSQKHNQSEYEDS [689-705, synthetic insulin receptor peptide, residues 689-705 of human IR]	0/0%	0/0%	
GMDIRNNLTRLHELE [37-51, synthetic insulin receptor peptide, residues 37-51 of human IR (UniProt P06213)]	11%	0%	
H-FRVYGLESLKDLF [91-103]	13%	4%	
H-NLTVIRGSRLFFNY [105-118]	2.4%	0%	
H-TIDWSRILDS [157-166]	4%	2%	
H-TQGKLFFHYNPK [453-464]	9%	0%	
HLYFGEVCPGMDIRNN [28-43, synthetic insulin receptor peptide, residues 28-43 of human IR (UniProt P06213)]	0/0%	0/0%	
Insulin: recombinant human insulin (Lilly for glycation; Sigma-Aldrich for IR binding)	24%	6%	tri-glycated
KTFEDYLHNVVFV [730-742, synthetic insulin receptor peptide, residues 730-742 of human IR]	11%	0%	

No end group written: not given here.
